Patent US10906896B2, “Compositions and methods for inhibiting kinases” (Inhibikase Therapeutics, Inc., priority 2015, dated 2021)
pEC50: −log10 of the molar value.

Tested on: JCV laboratory strain MAD-1
Test: JCV antiviral potency in Cos 7 cells
Format: cell-based
Details: JC polyomavirus, COS-7, 168 h; read-out: EC50 against JCV (absolute value)

Q: With Cc1ccc(NC(=O)c2ccc(CN3CCN(C)CC3)cc2)cc1Nc1nccc(-c2cccnc2)n1 [imatinib, reference compound] as the molecule, how does the pEC50 read?
A: The pEC50 was 5.31.
